The results in this text go back to paper PMC12040169 (PLOS Biology, 2025).

The experiment has as its system T1, CTL2-GFP (C. trachomatis L2/434/Bu, GFP-expressing).
T1 construct: L2/434/Bu, GFP-expressing
Further details: species or system HeLa; Intracellular C. trachomatis growth in HeLa cells, bulk GFP fluorescence relative to DMSO. The conditions noted are these: bulk GFP, single well, 28.5 h, 10 µM, inhibitor.

Read-outs that look alike come from different tables or passages of the source. The list shows a part of the results.

In the case of `CS(=O)(=O)c1ccc(-c2ccnc3nc(N)ccc23)cc1` [CBK067648], the “% of control remaining” value is reported as 126.224%.

Consider `COc1ccc(C)cc1S(=O)(=O)n1ccc2c(OC3CCCN(C)C3)nccc21` (stereo not shown) [CBK051582C], for which the “% of control remaining” value turned out to be 146.805%.

Regarding `CC(C)CC(NC(=O)c1ccccc1)C(=O)OCC(=O)Nc1nc2ccccc2s1` (stereo not shown) [CBK085134], the “% of control remaining” value is listed as 118.039%.

`COc1ccccc1CNC(=O)c1ccc2nc(C)c(N(C)C(=O)c3cccs3)n2c1` [CBK146546]: the “% of control remaining” value came out at 149.544%.

Turning to `O=C(COc1cccnc1)NCc1ccc(-c2csnn2)cc1` [CBK149312], the “% of control remaining” value is given as 106.247%.

Regarding `Cc1cc(NC(=O)C(C)(C)Oc2ccc(Cl)cc2)nc2c1c(=O)oc1ccccc12` [CBK291132], the “% of control remaining” value was 107.736%.

As to `Cc1noc(C)c1C(=O)N1CCCCCC1c1c(Cl)cnn1C` (stereo not shown) [CBK284918], the “% of control remaining” value came to 107.296%.

As to `Cc1noc(C)c1C(=O)Nc1cnc(-c2ccc(F)cc2)c(-c2ccsc2)n1` [CBK036781], the “% of control remaining” value turned out to be 92.8532%.

Consider `O=C(CCn1cnc2ccccc21)N1CCC(c2ccncc2)CC1` [CBK283522], for which the “% of control remaining” value is listed as 128.895%.

For `c1ccc(CN2C[C@H]3CCc4c[nH]nc4[C@H]3C2)nc1` [CBK282108], the “% of control remaining” value stood at 158.985%.

Turning to `COc1ccc(C(C)c2cc3c(cc2N)OCO3)cc1` (stereo not shown) [CBK200102T], the “% of control remaining” value came out at 88.7804%.

Turning to `COc1cccc(-c2nccc3ccn(CC(=O)N4CC=CCC4)c23)c1` [CBK284806], the “% of control remaining” value was determined as 134.179%.

For `CCOC1=NCCN2CCc3cccc1c32` [CBK023113], the “% of control remaining” value came to 113.149%.

`CCCN(C)Cc1ccc(-c2nnn(CC(=O)NCc3ccc(CC)cc3)n2)cc1NC(C)=O` [CBK164703]: the “% of control remaining” value is 117.51%.

Regarding `N/C(=N\OC(=O)c1cccc(Br)c1)c1ccccc1` [CBK261703], the “% of control remaining” value is 106.958%.

On to `N#C/C(=C\c1cn(Cc2ccc(Cl)cc2Cl)nc1-c1ccccc1)c1nc2ccccc2[nH]1` [CBK262545], for which the “% of control remaining” value was found to be 112.223%.

`Cc1nnc(SCC(=O)N/N=C/c2cc([N+](=O)[O-])ccc2O)n1-c1ccccc1` [CBK262768]: the “% of control remaining” value was 116.287%.

Take `COc1ccc2[nH]c3c(c2c1)CCN(S(C)(=O)=O)C31CCN(CCOc2ccccc2)C1` (stereo not shown) [CBK063187T]: the “% of control remaining” value worked out at 118.828%.

As to `Clc1ccc(COc2nccnc2OC2CCN(CC3CC3)CC2)cc1Cl` [CBK083123], the “% of control remaining” value (Bulk GFP fluorescence) is given as 125.025%.

For `Cc1cc2c(s1)c1cnn(Cc3cccnc3)c(=O)c1n2C` [CBK284154], the “% of control remaining” value worked out at 128.344%.

With `Cn1nc(C(C)(C)C)cc1C(=O)N1CCNC(=O)C1Cc1ccccc1-c1ccc(F)cc1` (stereo not shown) [CBK285830], the “% of control remaining” value is given as 121.031%.

On to `Nc1ncc(-c2ccccc2)nc1NC1CCOCC1` [CBK063748], for which the “% of control remaining” value is on record as 195.453%.

For `CN1CCN(S(=O)(=O)c2ccc(Br)cc2C(F)(F)F)CC1` [CBK062437], the “% of control remaining” value is recorded as 90.3016%.

With `Cc1ccc(C(=O)O)cc1S(=O)(=O)N(CCO)CCO` [CBK267335], the “% of control remaining” value was determined as 156.614%.

On to `Cc1cc(Cl)cc(Br)c1OCCNCCN(C)C` [CBK267791G], for which the “% of control remaining” value came to 92.4375%.

Take `CC(C)CCn1c(=S)[nH]c2c(oc3ccccc32)c1=O` [CBK288504]: the “% of control remaining” value was 95.1188%.

For the compound `CC1CC(C)CN(C(=O)c2cc(S(=O)(=O)N3CCOCC3)ccc2Cl)C1` (stereo not shown) [CBK305000], the “% of control remaining” value came out at 123.622%.

Regarding `O=C(O)C1C2C=CC(C2)C1C(=O)N1CCN(C(c2ccccc2)c2ccccc2)CC1` (stereo not shown) [CBK262659], the “% of control remaining” value was found to be 119.444%.

As to `COc1cc(-c2cnc3[nH]c(=O)n(C4CCOCC4)c3n2)cc(OC)c1OC` [CBK064255], the “% of control remaining” value stood at 166.606%.

Turning to `COCCCOc1cncc(NC(C)C)n1` [CBK115880], the “% of control remaining” value amounted to 122.878%.

With `Cc1cccc(-c2ocnc2C(=O)NCCCn2ccnc2)c1` [CBK282418], the “% of control remaining” value turned out to be 126.939%.

`Cc1ccccc1N1CCN(C(=O)c2c(C)oc3cc4c(C(=O)N5CCN(c6ccccc6C)CC5)c(C)oc4cc23)CC1` [CBK264833]: the “% of control remaining” value is reported as 100%.

On to `Cc1ccc(-c2nc3cc(Cl)ccc3o2)cc1NC(=S)NC(=O)c1cccc(Cl)c1` [CBK264022], for which the “% of control remaining” value was determined as 108.906%.

In the case of `CC(C)CCNC(=O)c1c(O)c2ccccc2[nH]c1=O` [CBK159975], the “% of control remaining” value is 143.114%.

As to `Nc1nc(NCCOc2ccccc2Cl)cc(C2CC(N)C2)n1` (stereo not shown) [CBK306825], the “% of control remaining” value came to 95.7998%.

Consider `CCc1cc(=O)[nH]c(-c2ccc(N3CC(C(N)=O)CCC3C)nc2)n1` (stereo not shown) [CBK306448], for which the “% of control remaining” value is 90.5663%.

For `COc1cc(-c2ccc3ccc(N)nc3n2)cc(OC)c1OC` [CBK061866], the “% of control remaining” value was found to be 131.231%.

In the case of `O=C(O)c1ccc(CSc2nnnn2-c2ccccc2)cc1` [CBK286726], the “% of control remaining” value turned out to be 115.993%.

Turning to `CC(C)NS(=O)(=O)c1ccc(NS(=O)(=O)c2ccc(F)c(C(=O)O)c2)cc1` [CBK297533], the “% of control remaining” value came out at 141.045%.

Regarding `Cc1ccccc1C(=O)NC(=S)Nc1sc2c(c1C(N)=O)CCC2` [CBK262107], the “% of control remaining” value stood at 87.8479%.

With `COc1cc(OC)nc(C(NC(=O)C2CCN(Cc3ccccc3F)CC2)c2ccc(Cl)cc2)n1` (stereo not shown) [CBK148152], the “% of control remaining” value worked out at 124.695%.

`CCn1c(C)nc2cc(NC(=O)c3cnn(C)c3)ccc21` [CBK281837]: the “% of control remaining” value is listed as 143.15%.

For `Nc1cccc(-c2nccnc2NCCc2ccccn2)c1` [CBK037512], the “% of control remaining” value stood at 113.781%.

Regarding `CC(C)N1CC[C@@H]2[C@H]1C(=O)NC[C@H](CCC(=O)Nc1ccccc1)N2C` [CBK289030], the “% of control remaining” value stood at 138.301%.

Turning to `C[C@H](Nc1cncc(-c2cccc(C(=O)NCCO)c2)n1)c1ccccc1` [CBK066007], the “% of control remaining” value is recorded as 75.2403%.

As to `Cc1cc(CN(C)Cc2c(C)nn(-c3ccc(F)cc3)c2C)n[nH]1` [CBK281990], the “% of control remaining” value amounted to 136.823%.

`C#CCNC(=O)CC[C@H]1CNC(=O)[C@@H]2[C@@H](CCN2Cc2ccc(C)cc2)N1C` [CBK289036]: the “% of control remaining” value is 165.35%.

Consider `COC(=O)c1ccc(C)c(NS(=O)(=O)c2cc(Cl)ccc2Cl)c1` [CBK077971], for which the “% of control remaining” value worked out at 112.406%.

With `COC(=O)C(NC(=O)c1cnc(-c2ccc(Cl)cc2)c(-c2ccc(O)cc2)c1)c1ccccc1` (stereo not shown) [CBK036723], the “% of control remaining” value was determined as 121.321%.

Consider `Cc1cccc(OCCn2c(SCCC(=O)O)nc3ccccc32)c1` [CBK264682], for which the “% of control remaining” value was 130.177%.

Regarding `COc1ccc([C@@]23CCCN(C(=O)Nc4ccc(C)c(F)c4)C[C@@H]2N(C)CC3)cc1OC` [CBK056680T], the “% of control remaining” value stood at 94.1621%.

Consider `Cc1cc(C(=O)NCc2cccnc2N(C)C2CCCCC2)nn1C` [CBK306577], for which the “% of control remaining” value is 112.826%.

In the case of `Cc1onc(-c2ccccc2)c1CNC(=O)c1ccco1` [CBK144074], the “% of control remaining” value was 118.419%.

As to `COc1ccc(C2=NN(c3ccccc3)C(c3cn(-c4ccccc4)nc3-c3ccccc3)C2)cc1` (stereo not shown) [CBK263230], the “% of control remaining” value is recorded as 123.202%.

Turning to `O=S(=O)(Nc1ccc(N2CCNCC2)nc1)c1ccc(F)cc1F` [CBK000022C], the “% of control remaining” value was found to be 56.9809%.

On to `COc1cc(C(=O)N2CCC3(CC2)CC(=O)c2cc(CN4CCN(C)CC4)ccc2O3)cc(OC)c1C` [CBK169185], for which the “% of control remaining” value is on record as 118.075%.

For `COc1ccc(C)cc1NC(=O)Nc1nc(C)cs1` [CBK006565], the “% of control remaining” value came to 100.917%.

With `O=C1NC(=O)C(CCCCN2CCCC3(CCN(C(=O)Cc4c[nH]c5ccccc45)C3)C2)N1` (stereo not shown) [CBK132059], the “% of control remaining” value turned out to be 121.645%.

For `CCNC(=O)c1cc2c(=O)n3ccccc3nc2n1C` [CBK287556], the “% of control remaining” value is recorded as 115.013%.

Take `CC(=O)Nc1ccc(S(=O)(=O)c2cc(O)ccc2O)cc1` [CBK261372]: the “% of control remaining” value stood at 100%.

On to `O=C(c1cc(C2CC2)on1)N1CCc2ncc(Cl)cc2C1` [CBK284855], for which the “% of control remaining” value came to 114.385%.

As for `Cc1cc(N)cc(C)c1O` [CBK012062C], the “% of control remaining” value is 61.1511%.

For `O=C(NCc1ccco1)NC(=O)c1ccc(Cl)cc1` [CBK269461], the “% of control remaining” value is reported as 124.715%.

As to `OCCN(Cc1cccnc1)CC1(c2ccc(Cl)cc2)CC1` [CBK282943], the “% of control remaining” value was determined as 69.5091%.

Turning to `CC(CN(C)C)C(=O)c1cn(C)c2ccccc12` (stereo not shown) [CBK015540], the “% of control remaining” value is on record as 166.52%.

Consider `COCc1nnc(Sc2ccc(C(F)(F)F)cn2)s1` [CBK115219], for which the “% of control remaining” value came to 105.356%.

On to `CN1CC=C(/C=C/C2=Cc3ccccc3OC2)CC1` [CBK283857], for which the “% of control remaining” value stood at 121.759%.

`COC(=O)c1ccc(NS(=O)(=O)Cc2ccccc2)cc1` [CBK028699]: the “% of control remaining” value is reported as 132.111%.

Take `CCC(CO)Nc1nccnc1-c1ccsc1` (stereo not shown) [CBK036606]: the “% of control remaining” value was 121.528%.

Consider `COc1ccc(C(=O)Nc2ccccc2C(=O)N2CCOCC2)cc1Br` [CBK269923], for which the “% of control remaining” value worked out at 128.22%.

For `Cc1cnc2[nH]c(C(F)(F)F)c(CN3CCCC(CO)C3)c2c1` (stereo not shown) [CBK285167], the “% of control remaining” value was 105.251%.

For the compound `Nc1ncc(-c2cc(C(F)(F)F)cc(C(F)(F)F)c2)nc1NC1CCC(O)CC1` (stereo not shown) [CBK063808], the “% of control remaining” value is 113.514%.

As to `O=C(NCCN1CCOCC1)c1nnc(C(=O)Nc2cccc(Cl)c2)s1` [CBK294405], the “% of control remaining” value amounted to 142.461%.

For `CCOC(=O)C1(N)CCCC1` [CBK073836C], the “% of control remaining” value was 160.615%.

For `O=C(Cn1cccc(C(=O)NC2CCCC2)c1=O)NCC1(c2ccccc2)CCCC1` [CBK285975], the “% of control remaining” value came to 124.693%.

With `O=C(Cn1nc2n(c1=O)CCCCC2)NCC(O)c1ccc(F)cc1` (stereo not shown) [CBK305187], the “% of control remaining” value came out at 122.309%.

As to `COc1ccc(CCNC(=O)N(C)C2CCN(C)C2)cc1` (stereo not shown) [CBK156019], the “% of control remaining” value is listed as 109.167%.

Regarding `O=c1[nH]cc(-c2ccc(F)cc2)cc1CNCc1cccc(F)c1` [CBK284697], the “% of control remaining” value is 140.525%.

As to `CCN(CC)CCn1c(=N)n(Cc2ccc(C(C)(C)C)cc2)c2ccccc21` [CBK268803B], the “% of control remaining” value was 107.378%.
